Assay results: patent publication US7229762B2, “Proteomic screening for redox state dependent protein—protein interactions” (Duke University Medical Center, priority 2003, dated 2007)
At least one structure is not confirmed: it was looked up by name or label, or the drawing left a doubt.

Assay type: physicochemical
Settings: maintained for several days, NO electrode
Procedure: Yeast (Δyhb1) were transformed with Gal4 BD-caspase-3 plasmid (bait) and a cDNA library (Gal4 AD prey plasmids) derived from activated (NO generating) macrophages. Screening was performed as described in the methods below. DETA-NO at less than 300 μM generates NO without inhibiting yeast growth (monitored by absorbance at 600 nm). Steady state NO concentrations are maintained at ˜100 nM–1 μM range for several days as measured with an NO electrode (not shown).
To assess the possibility of NO-dependent regulation of protein-protein interactions in a cellular context, a modified yeast two-hybrid screening methodology was developed. The first step was to delete the yeast flavohemoglobin gene (Liu et al., 2000), which consumes NO very efficiently and thus obfuscates NO signaling. […] It was also necessary to establish a concentration range of DETA-NO over which physiological amounts of NO could be generated in these assays without impairing yeast growth (FIG. 1A) (100 μM DETA-NO produces steady state concentrations of ˜300 nM NO in yeast culture medium, as determined using an NO electrode)
Purified caspase-3 was incubated in the presence or absence 20 μM DETA-NO for 60 min (30 nM steady state NO), followed by incubation with ASM at 37° C. for 2 hrs, and IP with caspase-3 antibody. […] The interaction of caspase-3 with ASM was measured as ASM activity in caspase-3 IP's (pH 5.0). […]

In the case of NCCN(CCN)/[N+]([O-])=N/O [DETA-NO, diethylenetriamine-NO], the “Steady state NO concentrations” value is reported as 100 nM–1 μM.
